For at least one entry, the source does not settle the construct or the ends of the probe. For some assays here: The comparison behind a weaker result is the experiment's own reference, which may not be listed here. For some assays here: At least one verdict rests on a figure or table, not on a statement of the authors.
Legend:
[1] = target: T1, BrxR (untagged WT) (Acinetobacter sp. NEB394) (UniProt A0A7H8SL41); experiment: crystal structure (2.3 A); conditions: recombinant protein; protein details: N-terminal His6 removed by thrombin
[2] = target: T1, BrxR (untagged WT) (Acinetobacter sp. NEB394); experiment: EMSA; conditions: EMSA: 20 mM Tris pH 7.9, 40 mM NaCl, 2.5% sucrose, 22 C, 30 min, 20 nM DNA (10 nM in Fig S6), 25-800 nM BrxR, 7% native gel in TBE, recombinant protein, protein details: N-terminal His6 removed by thrombin

Sequence	binding result [2]	further results
ATACCGTAAAAATAATTTACTGTAT (double strand) [25 bp BrxR target, crystal]		binding result [1]: binds
TTACGCTGGAGTCTGAGGCTCGTCCTGAATGATATATACCCTAAAAATAATTTAGTGTATGATCTTACGGCATTATACGTATGATCGGTCCACGACAGC (double strand)	binds more weakly	
TTACGCTGGAGTCTGAGGCTCGTCCTGAATGATATATACCGCAAAAATAATTTCCTGTATGATCTTACGGCATTATACGTATGATCGGTCCACGACAGC (double strand)	binds more weakly	
TTACGCTGGAGTCTGAGGCTCGTCCTGAATGATATATACCGTAAAAATAATTTACTGTATGATCTTACGGCATTATACGTATGATCGGTCCACGACAGC (double strand) [Fig 6D panel 1, WT target in random flanks (99 bp)]	binds	
TTACGCTGGAGTCTGAGGCTCGTCCTGAATGATATATCCCGTAAAAATAATTTACTGGATGATCTTACGGCATTATACGTATGATCGGTCCACGACAGC (double strand) [Fig 6D panel 2, +/-10 substitutions]		binding result ([2]; negligible effect vs WT target): binds

From publication PMC9122589
